No constants are given. Whether binding was seen depends on the method and setting. For some assays here: Binding can be weak; no strength is given.
Legend:
[1] = target: T1, XA21 intracellular domain (668-1025aa) (rice (Oryza longistaminata)) (UniProt Q40640); test: two-hybrid
T1 sequence: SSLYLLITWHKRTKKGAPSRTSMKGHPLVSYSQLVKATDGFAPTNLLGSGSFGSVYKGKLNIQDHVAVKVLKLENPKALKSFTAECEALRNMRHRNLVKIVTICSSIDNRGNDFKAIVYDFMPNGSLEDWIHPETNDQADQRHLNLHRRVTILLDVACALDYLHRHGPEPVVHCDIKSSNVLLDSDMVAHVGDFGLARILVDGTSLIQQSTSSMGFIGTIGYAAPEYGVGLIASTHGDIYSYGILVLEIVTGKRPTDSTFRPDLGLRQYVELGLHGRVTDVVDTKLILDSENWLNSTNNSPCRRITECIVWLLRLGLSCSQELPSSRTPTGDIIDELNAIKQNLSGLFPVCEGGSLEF

Chains of the proteins cited; added tags and fusions are not shown. Lines headed by an entry give the natural chain unless they say otherwise; changes in a name come on top. Residues count along the entry.
UniProt C0LGT6, residues 674-1031: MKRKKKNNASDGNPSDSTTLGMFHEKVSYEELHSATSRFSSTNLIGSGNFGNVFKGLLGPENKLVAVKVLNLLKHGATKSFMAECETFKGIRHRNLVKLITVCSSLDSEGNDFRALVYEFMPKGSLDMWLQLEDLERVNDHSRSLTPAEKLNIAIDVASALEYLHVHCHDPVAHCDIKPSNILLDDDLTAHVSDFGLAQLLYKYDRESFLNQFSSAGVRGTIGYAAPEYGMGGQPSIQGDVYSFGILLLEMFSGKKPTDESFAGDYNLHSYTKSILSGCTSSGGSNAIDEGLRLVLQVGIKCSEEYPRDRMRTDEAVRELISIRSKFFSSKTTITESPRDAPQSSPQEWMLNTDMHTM
UniProt Q84T94: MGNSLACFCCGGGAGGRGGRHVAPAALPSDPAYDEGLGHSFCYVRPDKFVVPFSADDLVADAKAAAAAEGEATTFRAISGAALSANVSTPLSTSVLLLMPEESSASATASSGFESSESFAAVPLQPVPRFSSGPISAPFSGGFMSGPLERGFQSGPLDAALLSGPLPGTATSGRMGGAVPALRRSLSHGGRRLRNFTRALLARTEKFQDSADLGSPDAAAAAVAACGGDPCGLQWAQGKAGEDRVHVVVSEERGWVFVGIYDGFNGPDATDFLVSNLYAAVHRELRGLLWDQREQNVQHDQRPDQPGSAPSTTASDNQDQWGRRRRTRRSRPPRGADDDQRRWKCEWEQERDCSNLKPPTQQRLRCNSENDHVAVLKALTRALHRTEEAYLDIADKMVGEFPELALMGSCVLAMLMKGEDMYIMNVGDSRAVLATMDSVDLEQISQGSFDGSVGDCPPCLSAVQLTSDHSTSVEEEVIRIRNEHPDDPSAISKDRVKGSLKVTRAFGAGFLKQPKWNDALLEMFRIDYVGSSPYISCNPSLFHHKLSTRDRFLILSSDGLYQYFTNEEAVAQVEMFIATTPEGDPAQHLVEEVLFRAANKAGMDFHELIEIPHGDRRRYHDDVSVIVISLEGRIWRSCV

[2] = target: EFR intracellular domain (ID) (674-1032aa) (Arabidopsis) (UniProt C0LGT6); test: two-hybrid

binding [1]: binds | binding [2]: no binding
Substance: XB15 full-length (FL) (1-639aa) (from UniProt Q84T94) (enzyme)

From paper PMC4379099 (PLoS Pathogens, 2015)
